T. brucei: 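Whole-parasite assay of Trypanosoma brucei over 72 hours; the read-out is not stated. Compounds at 30 µM. The record gives no direction; compounds that gave an IC50 in retests scored well above the rest, so higher reads as stronger inhibition. Values scatter widely below zero; nearly all retest evidence comes from the higher of the two concentrations used. Size under these conditions: about 64,000 compounds, about 940 of them at 50% or above in at least one test.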
Toxoplasma: 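Assay of Toxoplasma gondii numbers, read through their beta-galactosidase reporter with a colour substrate. Compounds at 10 µM. The record gives no direction; the compounds picked for IC50 retests had high values, so higher reads as fewer parasites. Size under these conditions: about 67,000 compounds, about 260 of them at 50% or above in at least one test.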

Values are the deposited “Percent Effect”, in %. How 0% and 100% were set is not recorded. Most values in the screen are low, and negative values occur. Compounds were drawn at random from those tested, without regard to their results. A dash means the value is not listed here; it may have been measured.

| compound | T. brucei | Toxoplasma |
|---|---|---|
| `Cn1ccnc1CNc1ccc(F)c(N2CCCS2(=O)=O)c1` | -12.33% | 5.464% |
| `CCn1cc(C#N)c(=O)c2cc(Br)ccc21` | -26.25% | - |
| `COc1ccc(CN2CCC3(CC2)CCN(CCN(C)C)C3=O)cc1.O=C(O)C(F)(F)F.O=C(O)C(F)(F)F` | 49.74% | 5.584% |
| `Cc1cn(-c2ccccc2)nc1NS(=O)(=O)c1cccc(C(=O)O)c1` | -59.66% | 1.314% |
| `CC1CCN(CCCNC(=O)C2CCCCC2)CC1` | -42.55% | 1.418% |
| `Cc1nc(CN2CCN(c3ccc4nncn4n3)C(C)C2)oc1C` (stereo unspecified) | -8.427% | -7.228% |
| `O=C(O)C(F)(F)F.c1cc(CN2Cc3nnn(CC4CC4)c3C(COCC3CC3)C2)co1` (stereo unspecified) | 16.94% | -0.3396% |
| `Cc1nc(CN2CCN(C(=O)c3sccc3C3CC3)CC2)oc1C` | - | 5.583% |
| `CCN(CC1=CCN(C)CC1)C(=O)CCOC` | -6.79% | -5.688% |
| `CCN(CCSc1ccccc1)C(=O)c1cn([C@H]2CC[C@@H](N)CC2)nn1` | -71.42% | 0.649% |
| `O=C(O)C(F)(F)F.O=C1Nc2ccccc2C12CCN(Cc1nccs1)CC2` | 9.004% | -4.623% |
| `CCC(C#N)NC(=O)CCNC(=O)C(C)(C)C` (stereo unspecified) | -2.736% | -4.485% |
| `Cc1cc(C)cc(OCCNC(=O)C(C)Sc2nncn2C)c1` (stereo unspecified) | - | -0.6238% |
| `COc1cccc2c1OCC(C(=O)N(C)CCCc1cnn(C)c1)C2` (stereo unspecified) | -71.84% | -1.314% |
| `Cc1nnnn1-c1ccc(CC(=O)N2CCOCC(O)C2)cc1` (stereo unspecified) | -35.07% | -2.835% |
| `O=C(NCCN1CCNC1=O)c1cc(-c2ccc(O)cc2)n[nH]1` | -15.71% | -33.64% |
| `[H][C@]12CC[C@]([H])(CN(Cc3cc(-c4ccccc4)no3)C1)N(CC1CC1)C2` | -36.61% | -8.801% |
| `O=C(NCC1CC2(CO1)CN(c1ncccn1)C2)C1CCC1` (stereo unspecified) | -69.72% | -6.461% |
| `Cc1nc2cc(F)cc(C(=O)N3CCN(CC(C)O)CC3)c2nc1C` (stereo unspecified) | -30.78% | -0.3751% |
| `CCN1CCN(C(=O)c2ccc(Cn3ccccc3=O)o2)CC1` | - | 12.66% |
| `CN1CC(=O)N(c2cccc(F)c2)CC12CCNC2` (stereo unspecified) | - | -0.5917% |
| `[H][C@@]12CN(c3ncc(C)cn3)C[C@]1(C(=O)NC)CCCN2c1ncccn1` | -64.52% | 16.48% |
| `CC(O)CN(C)C(=O)CCNC(=O)OC(C)(C)C` (stereo unspecified) | -35.31% | 11.58% |
| `CC1=CCN(C(=O)Nc2ccccc2N2CCOC2=O)CC1` | -0.6219% | -0.05764% |
| `Cc1cc(C)n(CC2CN(CC(=O)NCc3cccs3)CCO2)n1` (stereo unspecified) | - | 43.41% |
| `[H][C@@]12CCN(C(=O)Cc3ccsc3)C[C@@]1([H])O[C@H](c1noc(C)n1)C2` | 3.959% | -2.069% |
| `CCc1cnc(N2CCC(=O)N(CC3CC3)C(C(C)C)C2)nc1` (stereo unspecified) | -22.57% | -25.85% |
| `Cn1c(CO)cnc1SC1CCCN(c2ccccc2F)C1=O` (stereo unspecified) | -47.9% | 1.726% |
| `c1coc(-c2nc(CNC3CCC4(CCNCC4)CC3)no2)c1` | -24.71% | 0.4165% |
| `Cc1cc(=O)n(CC(=O)Nc2ccc(Cl)cc2)nc1C` | -26.52% | 3.812% |
| `CCC(CC)(CNC(=O)OC(C)(C)C)NC(=O)C1CC1` | -64.78% | -19.69% |
| `CC(=O)N1CCC(NC(=O)c2cc(Cl)ccc2-n2cnnn2)CC1` | -2.354% | -4.215% |
| `CC(=O)N(C)C(c1cccc(F)c1)c1ccccn1` (stereo unspecified) | - | 19.02% |
| `CC(C)c1noc(CN2CCCC2c2noc(C(C)C)n2)n1` (stereo unspecified) | -0.5472% | -2.351% |
| `O=C(O)C(F)(F)F.O=C(O)C(F)(F)F.O=C(O)C(F)(F)F.c1cnc(N2CCC3(CCN(Cc4cccnc4)CC3)CC2)nc1` | 34.23% | -49.12% |
| `CCc1ncc2c(n1)CN(C(=O)COC)C2` | -127.8% | 5.145% |
| `O=C(CCN1CCOCC1)Nc1cccc(CNCc2ccsc2)c1` | -67.94% | 6.885% |
| `O=C(c1ccc2ncsc2c1)N1CCC(C(=O)O)(n2cccn2)CC1` | -36.47% | 5.006% |
| `c1cc(-c2nnc([C@H]3CCNC3)o2)ccn1` | -14.61% | -22.78% |
| `CN(CCN1CCOCC1)C(=O)C1(c2ccc(F)cc2F)CCC1` | -21.1% | 10.08% |
| `CC(C)N1CCN(C(=O)c2csc3nc(-c4ccc(Cl)cc4)cn23)CC1` | -14.99% | 2.656% |
| `Cc1ccccc1OC(C(=O)N1CCC2(CC1)CN(C)C(=O)O2)C(C)C` (stereo unspecified) | 1.371% | -4.063% |
| `Cn1c(CN2CCCCC2)cc(=O)c(O)c1CN1CCCCC1` | -27.36% | 11.81% |
| `CC1(C(=O)N2CCOCC2)CN(Cc2ccccn2)CCO1` (stereo unspecified) | -36.98% | 5.573% |
| `Cc1csc(C(C)(C)NCCOc2ccc(CC#N)cc2)n1` | -24.82% | -7.788% |
| `CCCn1nccc1C(=O)N1CCN(C2CCc3ccccc3C2)CC1` (stereo unspecified) | -148.5% | -1.088% |
| `O=C(COc1ccccc1O)N1CCOC(C(F)(F)F)C1` (stereo unspecified) | -50.74% | 8.815% |
| `CC(C)c1nc(CN(C)C2CCN(CCNS(C)(=O)=O)C2)no1` (stereo unspecified) | -7.318% | -1.112% |
| `Cc1cn2nc(N3CCCC3Cn3nc(C)cc3C)sc2n1` (stereo unspecified) | 4.361% | -1.744% |
| `CC(c1ccco1)N(C(=O)NCc1ccon1)C1CC1` (stereo unspecified) | -16.22% | 5.055% |
| `[H][C@@]12CCN(C(=O)c3cc(C)[nH]c3C)C[C@]1(c1nc(C)no1)CCO2` | 2.668% | 0.2463% |
| `N#Cc1ccccc1C(=O)NCCC1CN(Cc2ccco2)CCO1` (stereo unspecified) | -17.69% | 23.49% |
| `[H][C@]12CNC[C@@]1(C(=O)N(C)Cc1nc(C)c[nH]1)CNC2` | 9.278% | -4.326% |
| `O=C(O)C(F)(F)F.O=C(c1ccoc1)N1CCCC2(CCC(=O)N2Cc2ccncc2)C1` (stereo unspecified) | -36.4% | 1.512% |
| `CC(=O)Nc1nc(C(=O)NCCOc2cccc(F)c2)cs1` | -18.91% | 10.91% |
| `CCc1ccc(S(=O)(=O)Nc2ccn(CC(=O)OC)n2)cc1` | -9.729% | -13.98% |
| `O=C(NCc1ccccc1CN1CCCCCC1)Nc1nncs1` | 5.972% | 1.123% |
| `CN1CCC(Cc2nc(-c3ccnn3C)n(Cc3ccccc3)n2)CC1` | -54.97% | 5.689% |
| `CCc1nc(-c2cncnc2C2CCNC2)no1` (stereo unspecified) | -7.645% | 20.32% |
| `Cn1cc(C(=O)Nc2cc(F)ccc2OCC2CCCO2)ccc1=O` (stereo unspecified) | - | -18.46% |
| `CN(C)C(=O)CNC(=O)c1cc2c(s1)CCN2S(C)(=O)=O` | -7.83% | 15.36% |
| `Cn1cc(CN2CCCC(CCc3ccc(F)c(F)c3)C2)cn1` (stereo unspecified) | -1.052% | 4.361% |
| `CC(NC(=O)N1CCCCCC1)c1ccc(S(N)(=O)=O)cc1` (stereo unspecified) | -13.23% | 5.637% |
| `[H][C@]12CC[C@]([H])(CN(Cc3cccnc3)C1)N(C(=O)c1ccnc(N)c1)C2` | 12.45% | -3.401% |
| `Oc1cc(CC2COCCN(CC3(O)CCOCC3)C2)ncn1` (stereo unspecified) | - | 6.654% |
| `c1ccc(CNC[C@H]2COCc3nc4cccnc4n32)cc1` | -25.53% | 1.355% |
| `OC1CCCOC12CCN(Cc1nnc(-c3cccnc3)o1)CC2` (stereo unspecified) | -43.95% | -0.4225% |

For reference, 4 entries once more:

compound,T. brucei,Toxoplasma
CCn1cc(C#N)c(=O)c2cc(Br)ccc21,-26.25%,-
Oc1cc(CC2COCCN(CC3(O)CCOCC3)C2)ncn1 (stereo unspecified),-,6.654%
CC(C)N1CCN(C(=O)c2csc3nc(-c4ccc(Cl)cc4)cn23)CC1,-14.99%,2.656%
CCC(C#N)NC(=O)CCNC(=O)C(C)(C)C (stereo unspecified),-2.736%,-4.485%

Source: ChEMBL document CHEMBL3988442, “University of Dundee, Small-Polar-MMV Screening Library” (2021).